Source: US9200082B2, “Methods and compositions involving fibrillizing polypeptides for nanofibers” (The University of Chicago, priority 2013, dated 2015)
Entries after “also recorded” stand apart in the source; their conditions may differ.

Test system: Q11 nanofibers
Assay: Protein/peptide integration into Q11 nanofibers (sedimentation by centrifugation, supernatant analysis)
Details: for integration into Q11 nanofibers: loss from supernatant after centrifugation

Substance | integration into Q11 nanofibers | sedimentation / self-assembly in the absence of Q11 (solutions lacking Q11 peptides) | co-integration of βTail-cut and βTail-GFP into Q11 nanofibers (varying molar ratio of proteins during Q11 assembly, nanofiber fluorescence and cutinase activity (FIG. 3D))
βTail-GFP: recombinant fusion of βTail, Gly-Ser linker, GFPuv and His6 expressed in E. coli; SEQ ID NO. 65 | efficiently integrated into Q11 nanofibers | retained in the supernatant when solutions lacked Q11 peptides; also recorded: not sedimented by centrifugation in the absence of Q11 at any concentration tested | co-integrated into Q11 nanofibers at a predictable dose, without loss of activity
βTmutant-GFP: fusion of GFP and a non-folding βTail mutant; SEQ ID NO. 67 | integrated poorly | – | –
